Assay results from paper PMC3320588.
No constants are given. Whether binding was seen depends on the method and setting. Sequences can lack the tags named with a protein.

By UniProt entry, the sequences of proteins in these tests, tags left out. Residues count along the entry.
UniProt P02769, residues 25-607: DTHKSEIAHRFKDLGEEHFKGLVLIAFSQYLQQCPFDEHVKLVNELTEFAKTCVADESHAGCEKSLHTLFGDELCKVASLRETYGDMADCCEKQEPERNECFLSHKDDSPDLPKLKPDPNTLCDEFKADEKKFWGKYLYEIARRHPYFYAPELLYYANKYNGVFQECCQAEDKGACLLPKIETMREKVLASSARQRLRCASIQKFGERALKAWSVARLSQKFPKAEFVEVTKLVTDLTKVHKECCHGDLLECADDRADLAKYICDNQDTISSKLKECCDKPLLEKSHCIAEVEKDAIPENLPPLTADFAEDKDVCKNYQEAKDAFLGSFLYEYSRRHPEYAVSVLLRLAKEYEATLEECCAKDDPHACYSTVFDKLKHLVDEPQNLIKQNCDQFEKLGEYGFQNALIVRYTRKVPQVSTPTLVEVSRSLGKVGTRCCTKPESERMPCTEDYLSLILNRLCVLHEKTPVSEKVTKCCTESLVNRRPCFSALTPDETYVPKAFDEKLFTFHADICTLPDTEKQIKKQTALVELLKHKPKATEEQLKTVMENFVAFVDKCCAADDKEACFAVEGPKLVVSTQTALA

Molecular target: bovine serum albumin coated onto red fluorescent beads (bovine) (UniProt P02769)
Experiment: bead-bead aggregation assay; green fluorescent beads coated with flagella or Tfp mixed with red fluorescent beads coated with BSA, rotary shaker 50 rpm, 2 h, ddH2O; fraction of mixed (yellow) aggregates by confocal microscopy; both purified

B1: flagella isolated by shearing from P. aeruginosa PAO1ΔpilA, coated onto green fluorescent beads (protein, UniProt P72151 1-488)
chain: MALTVNTNIASLNTQRNLNASSNDLNTSLQRLTTGYRINSAKDDAAGLQISNRLSNQISGLNVATRNANDGISLAQTAEGALQQSTNILQRIRDLALQSANGSNSDADRAALQKEVAAQQAELTRISDTTTFGGRKLLDGSFGTTSFQVGSNAYETIDISLQNASASAIGSYQVGSNGAGTVASVAGTATASGIASGTVNLVGGGQVKNIAIAAGDSAKAIAEKMDGAIPNLSARARTVFTADVSGVTGGSLNFDVTVGSNTVSLAGVTSTQDLADQLNSNSSKLGITASINDKGVLTITSATGENVKFGAQTGTATAGQVAVKVQGSDGKFEAAAKNVVAAGTAATTTIVTGYVQLNSPTAYSVSGTGTQASQVFGNASAAQKSSVASVDISTADGAQNAIAVVDNALAAIDAQRADLGAVQNRFKNTIDNLTNISENATNARSRIKDTDFAAETAALSKNQVLQQAGTAILAQANQLPQAVLSLLR
- binding: no binding
